Assay results published in patent US20180127505A1, “HUMANIZED ANTI-AXL ANTIBODIES AND THEIR CONJUGATES” (MEDIMMUNE LIMITED, priority 2015, published 2018).
Results are given in words; binding and its absence hold for the method and conditions named. Some binding calls cover weakened binding; strength is not graded here. Each block holds one binder with its values, some of them ahead of it.

Sequences of proteins named here, by UniProt entry; tags and fusion partners are left off. A change or cut given only in a name is not applied to a line headed by its entry.
UniProt P30530: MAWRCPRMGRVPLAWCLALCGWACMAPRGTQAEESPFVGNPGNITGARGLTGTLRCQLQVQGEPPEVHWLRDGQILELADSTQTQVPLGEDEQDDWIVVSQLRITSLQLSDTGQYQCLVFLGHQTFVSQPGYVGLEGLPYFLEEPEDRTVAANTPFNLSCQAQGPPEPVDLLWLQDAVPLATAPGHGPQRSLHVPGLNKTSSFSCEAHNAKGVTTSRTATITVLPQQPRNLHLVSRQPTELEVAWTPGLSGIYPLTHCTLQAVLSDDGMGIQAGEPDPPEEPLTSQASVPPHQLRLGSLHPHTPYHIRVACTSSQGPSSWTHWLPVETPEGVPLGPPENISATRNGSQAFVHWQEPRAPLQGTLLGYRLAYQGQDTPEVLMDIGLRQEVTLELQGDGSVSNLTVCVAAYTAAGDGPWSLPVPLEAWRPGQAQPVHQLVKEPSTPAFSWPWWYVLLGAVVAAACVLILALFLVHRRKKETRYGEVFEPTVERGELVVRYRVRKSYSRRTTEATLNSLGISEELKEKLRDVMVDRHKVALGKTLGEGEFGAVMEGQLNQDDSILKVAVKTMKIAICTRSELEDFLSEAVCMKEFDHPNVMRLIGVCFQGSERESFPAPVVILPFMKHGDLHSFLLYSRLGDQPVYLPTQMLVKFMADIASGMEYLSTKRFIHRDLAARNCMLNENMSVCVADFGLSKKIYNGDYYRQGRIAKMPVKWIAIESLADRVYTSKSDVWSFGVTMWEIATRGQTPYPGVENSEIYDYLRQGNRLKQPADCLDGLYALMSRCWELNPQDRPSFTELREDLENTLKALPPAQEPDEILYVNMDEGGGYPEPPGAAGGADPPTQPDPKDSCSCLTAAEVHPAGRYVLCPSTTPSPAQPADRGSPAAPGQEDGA

Assays:
[1] = biological target: Human AXL-Strep-His (produced by Evitria AG in transiently transfected CHO cells) (human) (UniProt P30530); test: human AXL ELISA (Protocol 4), antibody heated in sterile PBS at 40 °C for 60 hr, OD 450nm against Log10[IgG (µg/mL)]
[2] = biological target: Human AXL-Strep-His (produced by Evitria AG in transiently transfected CHO cells) (human) (UniProt P30530); test: human AXL ELISA (Protocol 4), untreated antibody of the accelerated stability analysis, OD 450nm against Log10[IgG (µg/mL)]
[3] = biological target: Human AXL-Strep-His (produced by Evitria AG in transiently transfected CHO cells) (human) (UniProt P30530); test: human AXL ELISA after 60 hr at 40 C in PBS
[4] = biological target: Human AXL-Strep-His (produced by Evitria AG in transiently transfected CHO cells) (human) (UniProt P30530); test: AXL-Strep-His binding ELISA; EC50 not given
[5] = biological target: Human AXL-Strep-His (produced by Evitria AG in transiently transfected CHO cells) (human) (UniProt P30530); test: ELISA on plate-coated human AXL-Strep-His (Protocol 4), OD 450nm against Log10[IgG (µg/mL)] [A. Human Axl]
[6] = biological target: Human AXL-Strep-His (produced by Evitria AG in transiently transfected CHO cells) (human) (UniProt P30530); test: ELISA on coated Axl-Strep-His (Protocol 4)
[7] = biological target: Human AXL-Strep-His (produced by Evitria AG in transiently transfected CHO cells) (human) (UniProt P30530); test: SPR, Axl-Strep-His antigen

binding [1]: binds
binding [2]: binds
binding [3]: binds
binding [4]: binds
binding [5]: binds
binding [6]: binds
B1: Ab1, anti-AXL antibody comprising the murine 1H12 VH (SEQ ID NO. 1) and VL (SEQ ID NO. 4) and a constant region derived from one or more human antibodies (antibody, V domains shown)
VH: EVQLVESGGDLVKPGGSLKLSCAASGFTFSSYGMSWVRQTPDKRLEWVATISSGGSYTYYPDSVKGRFTISRDNAKNTLYLQMSSLKSEDTAMYYCARHPIYYTYDDTMDYWGQGTSVTVSS
VL: ENVLTQSPAIMAASPGEKVTMTCSASSSVSSGNFHWYQQKPGTSPKLWIYRTSNLASGVPARFSGSGSGTSYSLTISSMEAEDAATYYCQQWSGYPWTFGGGTKLEIK
notes: also called Abl; chimeric 1H12

binding [1]: binds
binding [7]: binds
binding [2]: binds
binding [3]: binds
binding [4]: binds
binding [5]: binds
binding [6]: binds
B2: Ab5, anti-AXL antibody comprising VH SEQ ID NO. 3 and VL SEQ ID NO. 7 and a constant region derived from one or more human antibodies (antibody, V domains shown)
VH: EVQLVESGGGLVQPGGSLRLSCAASGFTFSSYGMSWVRQAPGKGLEWVATISSGGSYTYYPDSVKGRFTISRDNAKNSLYLQMNSLRAEDTAVYYCARHPIYYTYDDTMDYWGQGTLVTVSS
VL: EIVLTQSPGTLSLSPGERATLSCSASSSVSSGNFHWYQQKPGLAPRLLIYRTSNLASGIPARFSGSGSGTDFTLTISSLEPEDFAVYYCQQWSGYPWTFGGGTKLEIK
